No constants are given. Whether binding was seen depends on the method and setting. Some entries that bind do so weakly or less than the wild type. For some of these results: Where a sequence is shown, tags or fusion partners need not be part of it.
Legend:
[1] = biological target: KLRC1/KLRD1 heterodimer expressed on CT26 cells (UniProt P26715); assay: FACS, hFc-tagged proteins on CT26 cells expressing the receptor, MFI normalized to Thy1.1
[2] = biological target: KIR3DL1 D12 construct on CT26 cells (human) (UniProt P43629); assay: FACS, biotin-labelled IGSF8 on CT26 cells
[3] = biological target: KIR3DL2 D12 construct on CT26 cells (human) (UniProt P43630); assay: FACS, biotin-labelled IGSF8 on CT26 cells
[4] = biological target: KLRC1/KLRD1 heterodimer expressed on CT26 cells (UniProt P26715); assay: FACS (FIG. 17D)
[5] = biological target: KLRC1/KLRD1 heterodimer expressed on CT26 cells (UniProt P26715); assay: FACS, IGSF8-hFc on CT26 cells, MFI normalized to Thy1.1
[6] = biological target: KLRC1/KLRD1 heterodimer expressed on CT26 cells (UniProt P26715); assay: FACS on CT26 cells, 5 ug/mL, anti-human Fc-PE
[7] = biological target: KIR3DL2 expressed on cells (human) (UniProt P43630); assay: FACS, hFc-tagged proteins on CT26 cells expressing the receptor, MFI normalized to Thy1.1
[8] = biological target: KIR3DL1 expressed on CT26 cells (human) (UniProt P43629); assay: as above
[9] = biological target: KIR3DL2 expressed on cells (human) (UniProt P43630); assay: FACS on receptor-expressing cells (FIG. 17E)
[10] = biological target: KIR3DL1 expressed on CT26 cells (human) (UniProt P43629); assay: FACS on receptor-expressing cells (FIG. 17E)
[11] = biological target: KLRC1/KLRD1 heterodimer expressed on CT26 cells (UniProt P26715); assay: FACS on receptor-expressing cells (FIG. 17E)
[12] = biological target: KLRC1/KLRD1 heterodimer expressed on CT26 cells (UniProt P26715); assay: FACS cell-cell conjugate assay, CFSE-labelled MC38-IGSF8 mixed 1:1 with Far Red-labelled CT26-KLRC1+KLRD1

The chains behind the UniProt entries cited, without tags or fusion partners. Where a name states a change or a piece, a line headed by the entry shows the natural chain unless it says otherwise. Residues count along the entry.
UniProt P26715: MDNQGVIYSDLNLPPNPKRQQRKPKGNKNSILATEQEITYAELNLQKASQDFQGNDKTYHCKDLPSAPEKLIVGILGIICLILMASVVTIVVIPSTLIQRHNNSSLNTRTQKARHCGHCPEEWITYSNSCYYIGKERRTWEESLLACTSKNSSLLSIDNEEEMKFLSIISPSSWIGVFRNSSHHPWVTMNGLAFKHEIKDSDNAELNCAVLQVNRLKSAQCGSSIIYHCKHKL
UniProt P43629: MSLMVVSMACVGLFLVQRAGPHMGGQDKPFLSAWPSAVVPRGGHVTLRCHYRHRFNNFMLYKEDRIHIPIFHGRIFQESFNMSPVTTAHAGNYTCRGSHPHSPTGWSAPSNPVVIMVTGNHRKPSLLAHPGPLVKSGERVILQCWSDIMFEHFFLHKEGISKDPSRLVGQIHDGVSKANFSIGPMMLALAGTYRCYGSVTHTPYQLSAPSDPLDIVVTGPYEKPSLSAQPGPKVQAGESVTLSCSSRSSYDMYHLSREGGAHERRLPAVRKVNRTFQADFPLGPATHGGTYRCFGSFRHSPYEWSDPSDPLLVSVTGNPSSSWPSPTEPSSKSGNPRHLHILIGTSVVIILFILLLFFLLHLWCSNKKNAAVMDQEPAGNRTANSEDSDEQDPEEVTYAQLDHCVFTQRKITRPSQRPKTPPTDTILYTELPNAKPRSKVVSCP
KIR3DL1 expressed on CT26 cells: residues 22-444 of P43629
KIR3DL1 D12 construct on CT26 cells: residues 22-221 of P43629
UniProt P43630: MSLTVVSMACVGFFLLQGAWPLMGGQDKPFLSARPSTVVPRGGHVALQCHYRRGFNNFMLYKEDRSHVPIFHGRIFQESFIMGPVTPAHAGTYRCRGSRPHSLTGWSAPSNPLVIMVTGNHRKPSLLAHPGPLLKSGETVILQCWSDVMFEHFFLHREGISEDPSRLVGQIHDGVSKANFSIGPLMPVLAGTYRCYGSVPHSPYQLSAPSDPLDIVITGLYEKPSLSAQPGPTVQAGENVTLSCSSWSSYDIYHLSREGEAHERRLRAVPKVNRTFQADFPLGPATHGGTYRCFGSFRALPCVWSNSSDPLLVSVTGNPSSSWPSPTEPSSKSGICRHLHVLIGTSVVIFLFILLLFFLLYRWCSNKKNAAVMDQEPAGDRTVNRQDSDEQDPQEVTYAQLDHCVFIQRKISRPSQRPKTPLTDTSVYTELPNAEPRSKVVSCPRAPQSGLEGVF
KIR3DL2 expressed on cells: residues 22-455 of P43630
KIR3DL2 D12 construct on CT26 cells: residues 22-221 of P43630

Measured: binding

B1: recombinant human IGSF8 extracellular domain tagged by a human Fc region (IGSF8-hFc) (Fc fusion, not shown: a dimerising Fc or GST)
chain: REVLVPEGPLYRVAGTAVSISCNVTGYEGPAQQNFEWFLYRPEAPDTALGIVSTKDTQFSYAVFKSRVVAGEVQVQRLQGDAVVLKIARLQAQDAGIYECHTPSTDTRYLGSYSGKVELRVLPDVLQVSAAPPGPRGRQAPTSPPRMTVHEGQELALGCLARTSTQKHTHLAVSFGRSVPEAPVGRSTLQEVVGIRSDLAVEAGAPYAERLAAGELRLGKEGTDRYRMVVGGAQAGDAGTYHCTAAEWIQDPDGSWAQIAEKRAVLAHVDVQTLSSQLAVTVGPGERRIGPGEPLELLCNVSGALPPAGRHAAYSVGWEMAPAGAPGPGRLVAQLDTEGVGSLGPGYEGRHIAMEKVASRTYRLRLEAARPGDAGTYRCLAKAYVRGSGTRLREAASARSRPLPVHVREEGVVLEAVAWLAGGTVYRGETASLLCNISVRGGPPGLRLAASWWVERPEDGELSSVPAQLVGGVGQDGVAELGVRPGGGPVSVELVGPRSHRLRLHSLGPEDEGVYHCAPSAWVQHADYSWYQAGSARSGPVTVYPYMHALDT
modifications: biotin label in Examples 17, 18 and 28 (site not given)
binds: [1] | [2] | [3] | [4] | [5] | [6]

B2: D1 domain of IGSF8 (recombinant protein) (ligand, human, UniProt Q969P0 28-149, looked up)
chain: REVLVPEGPLYRVAGTAVSISCNVTGYEGPAQQNFEWFLYRPEAPDTALGIVSTKDTQFSYAVFKSRVVAGEVQVQRLQGDAVVLKIARLQAQDAGIYECHTPSTDTRYLGSYSGKVELRVL
binds: [7] | [8] | [1] | [9] | [10] | [11]

B3: human IGSF8 expressed on the cell surface (ligand, UniProt Q969P0 28-613, looked up)
chain: REVLVPEGPLYRVAGTAVSISCNVTGYEGPAQQNFEWFLYRPEAPDTALGIVSTKDTQFSYAVFKSRVVAGEVQVQRLQGDAVVLKIARLQAQDAGIYECHTPSTDTRYLGSYSGKVELRVLPDVLQVSAAPPGPRGRQAPTSPPRMTVHEGQELALGCLARTSTQKHTHLAVSFGRSVPEAPVGRSTLQEVVGIRSDLAVEAGAPYAERLAAGELRLGKEGTDRYRMVVGGAQAGDAGTYHCTAAEWIQDPDGSWAQIAEKRAVLAHVDVQTLSSQLAVTVGPGERRIGPGEPLELLCNVSGALPPAGRHAAYSVGWEMAPAGAPGPGRLVAQLDTEGVGSLGPGYEGRHIAMEKVASRTYRLRLEAARPGDAGTYRCLAKAYVRGSGTRLREAASARSRPLPVHVREEGVVLEAVAWLAGGTVYRGETASLLCNISVRGGPPGLRLAASWWVERPEDGELSSVPAQLVGGVGQDGVAELGVRPGGGPVSVELVGPRSHRLRLHSLGPEDEGVYHCAPSAWVQHADYSWYQAGSARSGPVTVYPYMHALDTLFVPLLVGTGVALVTGATVLGTITCCFMKRLRKR
binds: [12]
